Reference: the supplement of paper PMC10849652
This is one part of the list. Residues, ends and D or L forms follow the SMILES beside them. *: point of attachment. Cbz = O=C(OCc1ccccc1)*

Protein sequences, listed by entry. Tags and fused reporters are not part of them. Lines headed by an entry give the natural chain unless they say otherwise; changes in a name come on top.
UniProt Q6YN16: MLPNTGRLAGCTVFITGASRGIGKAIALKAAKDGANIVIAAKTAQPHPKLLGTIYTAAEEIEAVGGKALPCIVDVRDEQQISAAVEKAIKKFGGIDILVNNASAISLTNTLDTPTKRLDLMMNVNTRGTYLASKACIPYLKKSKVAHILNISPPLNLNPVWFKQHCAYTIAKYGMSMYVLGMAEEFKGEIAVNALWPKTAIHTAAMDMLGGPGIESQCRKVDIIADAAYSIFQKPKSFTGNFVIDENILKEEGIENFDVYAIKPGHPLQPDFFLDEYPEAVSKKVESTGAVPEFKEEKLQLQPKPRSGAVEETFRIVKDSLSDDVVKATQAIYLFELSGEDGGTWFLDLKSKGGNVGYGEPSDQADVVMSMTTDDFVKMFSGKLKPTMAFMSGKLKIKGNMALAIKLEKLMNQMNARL
UniProt Q86YM7: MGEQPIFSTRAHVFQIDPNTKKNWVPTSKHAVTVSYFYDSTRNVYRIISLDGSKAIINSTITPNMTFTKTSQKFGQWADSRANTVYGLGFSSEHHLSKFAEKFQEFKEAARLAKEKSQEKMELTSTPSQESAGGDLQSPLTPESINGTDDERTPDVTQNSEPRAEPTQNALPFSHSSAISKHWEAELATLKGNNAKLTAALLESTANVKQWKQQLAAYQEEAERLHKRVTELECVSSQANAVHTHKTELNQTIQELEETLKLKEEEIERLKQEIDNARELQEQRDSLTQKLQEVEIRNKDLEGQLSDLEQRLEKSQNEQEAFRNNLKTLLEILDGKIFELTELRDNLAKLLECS
UniProt Q53FT3: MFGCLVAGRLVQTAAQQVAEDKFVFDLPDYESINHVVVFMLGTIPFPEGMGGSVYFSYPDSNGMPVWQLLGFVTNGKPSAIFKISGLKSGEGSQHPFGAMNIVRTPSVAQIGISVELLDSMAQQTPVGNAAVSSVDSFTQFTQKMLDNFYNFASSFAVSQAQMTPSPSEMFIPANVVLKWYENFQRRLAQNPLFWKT
UniProt Q8TB92: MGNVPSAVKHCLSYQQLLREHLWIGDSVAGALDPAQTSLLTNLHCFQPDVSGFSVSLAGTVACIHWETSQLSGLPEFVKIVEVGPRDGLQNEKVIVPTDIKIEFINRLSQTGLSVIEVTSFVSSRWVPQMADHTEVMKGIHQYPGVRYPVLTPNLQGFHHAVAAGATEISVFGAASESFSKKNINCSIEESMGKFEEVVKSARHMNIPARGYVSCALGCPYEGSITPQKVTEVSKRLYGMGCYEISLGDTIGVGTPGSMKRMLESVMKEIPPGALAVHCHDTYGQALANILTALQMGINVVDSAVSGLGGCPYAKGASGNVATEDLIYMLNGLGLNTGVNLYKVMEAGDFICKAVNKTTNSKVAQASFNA
UniProt O75146: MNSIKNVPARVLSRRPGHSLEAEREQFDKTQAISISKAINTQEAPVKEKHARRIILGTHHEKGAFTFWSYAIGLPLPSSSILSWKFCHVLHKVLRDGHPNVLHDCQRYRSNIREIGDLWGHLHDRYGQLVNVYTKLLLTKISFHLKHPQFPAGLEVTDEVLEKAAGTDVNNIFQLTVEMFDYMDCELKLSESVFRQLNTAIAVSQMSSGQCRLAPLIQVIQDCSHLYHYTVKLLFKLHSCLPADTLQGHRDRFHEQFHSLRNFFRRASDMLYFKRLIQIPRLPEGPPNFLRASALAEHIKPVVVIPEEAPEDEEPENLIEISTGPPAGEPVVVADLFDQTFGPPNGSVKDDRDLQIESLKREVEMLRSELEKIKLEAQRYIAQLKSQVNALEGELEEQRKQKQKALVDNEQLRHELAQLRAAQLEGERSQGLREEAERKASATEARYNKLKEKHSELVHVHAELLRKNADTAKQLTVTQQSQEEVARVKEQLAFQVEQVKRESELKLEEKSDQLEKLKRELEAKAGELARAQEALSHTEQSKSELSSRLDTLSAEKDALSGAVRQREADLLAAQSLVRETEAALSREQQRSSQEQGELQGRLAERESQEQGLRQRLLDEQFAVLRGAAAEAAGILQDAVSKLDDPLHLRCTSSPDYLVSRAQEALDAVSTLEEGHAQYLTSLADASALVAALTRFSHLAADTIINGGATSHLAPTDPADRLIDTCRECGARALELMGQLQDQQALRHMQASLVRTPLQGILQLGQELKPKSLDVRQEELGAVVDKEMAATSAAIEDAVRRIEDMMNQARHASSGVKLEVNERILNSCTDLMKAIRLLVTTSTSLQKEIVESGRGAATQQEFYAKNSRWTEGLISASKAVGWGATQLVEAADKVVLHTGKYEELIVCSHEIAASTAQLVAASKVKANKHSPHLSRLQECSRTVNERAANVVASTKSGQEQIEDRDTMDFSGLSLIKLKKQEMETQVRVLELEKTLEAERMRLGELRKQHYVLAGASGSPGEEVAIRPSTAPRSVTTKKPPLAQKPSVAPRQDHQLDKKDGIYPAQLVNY
UniProt Q659A1: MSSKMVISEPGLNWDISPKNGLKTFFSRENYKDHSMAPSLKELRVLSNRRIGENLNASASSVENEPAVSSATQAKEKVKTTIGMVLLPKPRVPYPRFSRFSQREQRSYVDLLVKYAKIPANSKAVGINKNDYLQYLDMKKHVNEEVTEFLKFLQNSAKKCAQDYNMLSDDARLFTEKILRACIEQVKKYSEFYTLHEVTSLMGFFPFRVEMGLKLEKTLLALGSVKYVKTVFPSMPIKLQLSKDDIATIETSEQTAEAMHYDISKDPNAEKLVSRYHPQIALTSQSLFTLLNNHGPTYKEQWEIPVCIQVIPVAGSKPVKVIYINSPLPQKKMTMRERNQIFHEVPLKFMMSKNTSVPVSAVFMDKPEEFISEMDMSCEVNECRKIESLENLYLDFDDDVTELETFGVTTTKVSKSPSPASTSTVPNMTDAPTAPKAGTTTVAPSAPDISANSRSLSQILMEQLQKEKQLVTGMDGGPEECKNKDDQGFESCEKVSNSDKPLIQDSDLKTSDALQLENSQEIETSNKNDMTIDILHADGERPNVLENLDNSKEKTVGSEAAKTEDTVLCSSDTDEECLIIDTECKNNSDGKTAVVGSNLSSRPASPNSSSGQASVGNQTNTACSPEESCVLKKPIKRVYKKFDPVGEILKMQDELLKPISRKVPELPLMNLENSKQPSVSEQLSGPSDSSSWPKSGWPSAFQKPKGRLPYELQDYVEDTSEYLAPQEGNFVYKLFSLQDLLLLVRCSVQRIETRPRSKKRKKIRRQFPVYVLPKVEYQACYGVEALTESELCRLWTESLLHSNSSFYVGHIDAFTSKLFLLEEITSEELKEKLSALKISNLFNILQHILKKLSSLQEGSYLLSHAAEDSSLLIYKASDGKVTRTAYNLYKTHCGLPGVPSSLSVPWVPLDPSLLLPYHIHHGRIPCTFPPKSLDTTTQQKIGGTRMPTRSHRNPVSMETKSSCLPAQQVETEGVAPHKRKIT
UniProt Q53GQ0: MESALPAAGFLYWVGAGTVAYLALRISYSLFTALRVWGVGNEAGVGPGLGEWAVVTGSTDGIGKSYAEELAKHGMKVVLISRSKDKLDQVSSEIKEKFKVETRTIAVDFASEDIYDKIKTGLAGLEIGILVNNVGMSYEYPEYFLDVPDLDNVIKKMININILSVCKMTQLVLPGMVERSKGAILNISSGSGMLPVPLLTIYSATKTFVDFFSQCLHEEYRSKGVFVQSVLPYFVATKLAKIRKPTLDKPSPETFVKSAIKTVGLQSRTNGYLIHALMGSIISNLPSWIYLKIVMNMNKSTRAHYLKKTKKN
UniProt Q00613: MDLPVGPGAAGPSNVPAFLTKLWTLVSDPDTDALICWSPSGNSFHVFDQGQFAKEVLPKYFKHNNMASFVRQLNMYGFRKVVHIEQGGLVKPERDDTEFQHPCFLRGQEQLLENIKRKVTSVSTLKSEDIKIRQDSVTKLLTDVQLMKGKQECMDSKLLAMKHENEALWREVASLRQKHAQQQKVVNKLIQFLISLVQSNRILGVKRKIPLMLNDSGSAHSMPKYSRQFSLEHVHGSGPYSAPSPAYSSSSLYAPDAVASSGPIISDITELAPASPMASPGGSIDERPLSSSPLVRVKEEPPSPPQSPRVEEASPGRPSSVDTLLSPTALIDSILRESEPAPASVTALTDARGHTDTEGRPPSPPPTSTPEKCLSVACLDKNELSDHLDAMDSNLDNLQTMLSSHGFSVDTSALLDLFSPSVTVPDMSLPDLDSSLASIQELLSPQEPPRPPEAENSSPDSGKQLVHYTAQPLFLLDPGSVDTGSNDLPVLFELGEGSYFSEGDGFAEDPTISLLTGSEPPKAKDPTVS
UniProt Q9BUJ2: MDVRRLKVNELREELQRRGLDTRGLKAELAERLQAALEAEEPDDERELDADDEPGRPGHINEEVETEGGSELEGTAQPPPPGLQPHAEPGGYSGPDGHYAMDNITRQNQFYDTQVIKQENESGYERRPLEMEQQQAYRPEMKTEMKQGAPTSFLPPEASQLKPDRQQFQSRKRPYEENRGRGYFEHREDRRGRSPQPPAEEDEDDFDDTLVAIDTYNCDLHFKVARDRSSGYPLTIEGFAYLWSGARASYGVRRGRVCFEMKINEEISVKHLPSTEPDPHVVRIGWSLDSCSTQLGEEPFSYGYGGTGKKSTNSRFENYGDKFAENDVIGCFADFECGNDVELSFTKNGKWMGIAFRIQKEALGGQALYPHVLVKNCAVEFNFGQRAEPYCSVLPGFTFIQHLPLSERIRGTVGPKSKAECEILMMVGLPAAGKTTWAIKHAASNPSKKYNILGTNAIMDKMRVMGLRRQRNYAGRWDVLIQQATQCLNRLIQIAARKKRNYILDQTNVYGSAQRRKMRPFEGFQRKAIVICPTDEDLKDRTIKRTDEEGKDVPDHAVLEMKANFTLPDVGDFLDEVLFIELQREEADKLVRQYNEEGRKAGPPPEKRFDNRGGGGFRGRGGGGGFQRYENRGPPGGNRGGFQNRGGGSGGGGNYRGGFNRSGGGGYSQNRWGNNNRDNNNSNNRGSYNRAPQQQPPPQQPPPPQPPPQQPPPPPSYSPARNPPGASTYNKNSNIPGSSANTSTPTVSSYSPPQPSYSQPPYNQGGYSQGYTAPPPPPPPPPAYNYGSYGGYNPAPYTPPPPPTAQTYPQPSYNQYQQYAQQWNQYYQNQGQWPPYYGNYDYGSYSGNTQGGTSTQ
UniProt P30519: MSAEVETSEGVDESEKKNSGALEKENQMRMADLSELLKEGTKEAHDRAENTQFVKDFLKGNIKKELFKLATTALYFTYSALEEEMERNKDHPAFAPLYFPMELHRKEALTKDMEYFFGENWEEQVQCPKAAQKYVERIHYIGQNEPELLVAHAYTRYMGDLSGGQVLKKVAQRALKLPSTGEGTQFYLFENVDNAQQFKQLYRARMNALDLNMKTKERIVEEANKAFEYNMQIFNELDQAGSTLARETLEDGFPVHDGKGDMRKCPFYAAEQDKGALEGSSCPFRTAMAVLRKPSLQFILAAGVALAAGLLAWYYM
UniProt Q1KMD3: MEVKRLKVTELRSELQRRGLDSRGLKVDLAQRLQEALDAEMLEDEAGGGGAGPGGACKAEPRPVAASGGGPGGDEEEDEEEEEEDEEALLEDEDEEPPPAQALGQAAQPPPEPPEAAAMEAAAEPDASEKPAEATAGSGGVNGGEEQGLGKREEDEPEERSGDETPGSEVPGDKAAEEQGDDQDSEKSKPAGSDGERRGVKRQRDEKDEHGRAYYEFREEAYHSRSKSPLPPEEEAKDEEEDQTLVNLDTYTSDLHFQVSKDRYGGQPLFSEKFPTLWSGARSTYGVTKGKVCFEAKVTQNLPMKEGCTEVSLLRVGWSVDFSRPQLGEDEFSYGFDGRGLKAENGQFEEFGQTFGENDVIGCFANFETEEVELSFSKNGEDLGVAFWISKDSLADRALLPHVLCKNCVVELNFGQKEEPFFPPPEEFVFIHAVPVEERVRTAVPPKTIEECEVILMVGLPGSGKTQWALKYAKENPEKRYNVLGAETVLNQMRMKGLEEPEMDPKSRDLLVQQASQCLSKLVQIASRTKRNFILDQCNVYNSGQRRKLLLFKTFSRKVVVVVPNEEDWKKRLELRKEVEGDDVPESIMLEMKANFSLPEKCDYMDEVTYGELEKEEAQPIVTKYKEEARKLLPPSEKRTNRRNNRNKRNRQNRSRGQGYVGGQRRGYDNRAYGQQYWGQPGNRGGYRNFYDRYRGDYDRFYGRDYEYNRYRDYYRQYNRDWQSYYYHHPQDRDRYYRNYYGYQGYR

Experiments:
Test in all cases: log2 fold change, soluble protein after heating vs DMSO (PISA); higher = thermal stabilisation; K562 cells, 10 uM, 30 min; active = over 0.2 and 3.5 SD of the protein, either way, in both replicates (recomputed)
erlotinib = compound: C#Cc1cccc(Nc2ncnc3cc(OCCOC)c(OCCOC)cc23)c1 [erlotinib]
Summary of the method: (§1)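 K562 cells at 2×10^6 cells/mL were exposed to 10 μM compound for 30 min, then aliquots were heated for 3 min across 48°C-58°C, pooled, and extracted in PBS containing 0.5% NP-40 at 4°C. The supernatant after 21,000xg for 90 min was taken as soluble protein and measured by TMTpro 16plex LC-MS/MS with channel sums equalised. Thermal stability is reported relative to control samples, with values from duplicates. Fold changes are given on a log2 scale.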

[1] = compound: C/C(=N\NC(=O)C1=CC(=CC=C1)S(=O)(=O)N2CCOCC2)/C3=C(C=CC(=C3)Cl)O
Summary of the method: as §1

[2] = compound: C1=CC(=C(C=C1Cl)C2=NC3=NC=CN=C3C(=N2)NC4=CC=NC=C4)F
Summary of the method: as §1

[3] = compound: C1=CC(=CC=C1C2=NC3=C(N2)C=C(C=C3)C(=O)N)OC4=CC=C(C=C4)Cl
Summary of the method: as §1

[4] = compound: C1=CC2=C(C=CC(=C2)/C=C\3/C(=O)NC(=NCC4=CC=CS4)S3)N=C1
Summary of the method: as §1

[5] = compound: C1=CC2=NC=CN=C2C=C1/C=C/3\C(=O)NC(=O)S3
Summary of the method: as §1

[6] = compound: C1=CC=C(C=C1)C2=NC(=C(N2)C3=CC=NC=C3)C4=CC(=C(C=C4)Cl)O
Summary of the method: as §1

[7] = compound: C1=CC=C2C(=C1)C3=NNC4=CC=CC(=C43)C2=O
Summary of the method: as §1

[8] = compound: C1CCN(C1)C(=O)NC2=CC=CC(=C2)NC3=NC=C(C(=N3)NCCC4=CN=CN4)Br
Summary of the method: as §1

[9] = compound: C1CN(CCC1(CC2=CC=C(C=C2)Cl)N)C3=NC=NC4=C3C=CN4
Summary of the method: as §1

IRAK-1-4 Inhibitor I = compound: C1COCCN1CCN2C3=CC=CC=C3N=C2NC(=O)C4=CC(=CC=C4)[N+](=O)[O-] [IRAK-1-4 Inhibitor I]
Summary of the method: as §1

ibrutinib = compound: C=CC(=O)N1CCC[C@@H](n2nc(-c3ccc(Oc4ccccc4)cc3)c3c(N)ncnc32)C1 [ibrutinib]
Summary of the method: as §1

[10] = compound: CC(=O)c1cnc2ccc(-c3cc(Cl)c(O)c(Cl)c3)nc2c1N[C@H]1CC[C@H](CN(C)C)CC1
Summary of the method: as §1

ralimetinib = compound: CC(C)(C)Cn1c(N)nc2ccc(-c3[nH]c(C(C)(C)C)nc3-c3ccc(F)cc3)nc21 [ralimetinib]
Summary of the method: as §1

[11] = compound: CC(C)(O)CC(=O)NCCn1ccc2ncnc(Nc3ccc(Oc4cccc(C(F)(F)F)c4)c(Cl)c3)c21
Summary of the method: as §1

[12] = compound: CC(C)C1=C2N=C(C=C(N2N=C1)NCC3=CC=CC=C3)NCCCCCCN
Summary of the method: as §1

[13] = compound: CC(C)C[C@@H](C=O)NC(=O)[C@H](CC(C)C)NC(=O)[C@H](CC(C)C)NC(=O)OCc1ccccc1
Summary of the method: as §1

pinometostat = compound: CC(C)N(C[C@H]1O[C@@H](n2cnc3c(N)ncnc32)[C@H](O)[C@@H]1O)[C@H]1C[C@@H](CCc2nc3cc(C(C)(C)C)ccc3[nH]2)C1 [pinometostat]
Summary of the method: as §1

[14] = compound: CC1=C(C2=C(C=C1)C(=O)C3=CC=CC=C3N2CCCN)C
Summary of the method: as §1

[15] = compound: CC1=C(C(CC(=O)N1)C2=CC=C(C=C2)C(F)(F)F)C(=O)NC3=C(C=C4C(=C3)C=NN4)F
Summary of the method: as §1

Measured: log2 fold change

HIP1 (UniProt O00291)
inactive: erlotinib 0.018 | [1] 0.033 | [2] 0.046 | [3] -0.004 | [4] 0.018 | [5] -0.056 | [6] 0.011 | [7] -0.166 | [8] -0.209 | [9] 0.09 | IRAK-1-4 Inhibitor I -0.002 | ibrutinib 0.083 | [10] -0.07 | ralimetinib -0.003 | [11] -0.035 | [12] -0.056 | [13] 0.079 | pinometostat 0.045 | [14] 0.038

HKDC1 (UniProt Q2TB90)
inactive: erlotinib -0.011 | [1] 0.065 | [2] 0.029 | [3] 0.011 | [4] 0.02 | [5] 0.066 | [6] -0.042 | [7] 0.01 | [8] 0.019 | [9] 0.024 | IRAK-1-4 Inhibitor I -0.022 | ibrutinib -0.002 | [10] -0.125 | ralimetinib -0.152 | [11] 0.036 | [12] 0.027 | [13] -0.148 | pinometostat -0.027 | [15] 0.038 | [14] 0.013

HSPH1 (UniProt Q92598)
inactive: erlotinib 0.009 | [1] 0.05 | [2] 0.038 | [3] -0.032 | [4] -0.037 | [5] -0.006 | [6] 0.045 | [7] 0.006 | [8] -0.002 | [9] -0.027 | IRAK-1-4 Inhibitor I -0.008 | ibrutinib 0.002 | [10] 0.029 | ralimetinib 0.014 | [11] -0.02 | [12] -0.043 | [13] -0.065 | pinometostat -0.018 | [15] 0.049 | [14] 0.003

HSDL2 (UniProt Q6YN16)
inactive: erlotinib 0.048 | [1] 0.042 | [2] 0.118 | [3] -0.05 | [4] 0.025 | [5] 0.025 | [6] 0.047 | [7] 0.014 | [8] -0.032 | [9] 0.054 | IRAK-1-4 Inhibitor I 0.021 | ibrutinib 0.008 | [10] -0.087 | ralimetinib -0.055 | [11] -0.209 | [12] -0.026 | [13] -0.028 | pinometostat -0.089 | [15] -0.034 | [14] 0.095

HOMER1 (UniProt Q86YM7)
active: pinometostat -0.225
inactive: erlotinib -0.103 | [1] -0.015 | [2] -0.05 | [3] 0.016 | [4] 0.021 | [5] 0.074 | [6] -0.057 | [7] -0.015 | [8] 0.062 | [9] -0.011 | IRAK-1-4 Inhibitor I 0.104 | ibrutinib 0.009 | [10] -0.043 | ralimetinib 0.004 | [11] 0.03 | [12] 0.034 | [13] -0.088 | [14] 0.093

Taken from the entries so far (2 entries):
HSPH1 (UniProt Q92598)
inactive: erlotinib 0.009 | [1] 0.05 | [2] 0.038 | [3] -0.032 | [4] -0.037 | [5] -0.006 | [6] 0.045 | [7] 0.006 | [8] -0.002 | [9] -0.027 | IRAK-1-4 Inhibitor I -0.008 | ibrutinib 0.002 | [10] 0.029 | ralimetinib 0.014 | [11] -0.02 | [12] -0.043 | [13] -0.065 | pinometostat -0.018 | [15] 0.049 | [14] 0.003

HSDL2 (UniProt Q6YN16)
inactive: erlotinib 0.048 | [1] 0.042 | [2] 0.118 | [3] -0.05 | [4] 0.025 | [5] 0.025 | [6] 0.047 | [7] 0.014 | [8] -0.032 | [9] 0.054 | IRAK-1-4 Inhibitor I 0.021 | ibrutinib 0.008 | [10] -0.087 | ralimetinib -0.055 | [11] -0.209 | [12] -0.026 | [13] -0.028 | pinometostat -0.089 | [15] -0.034 | [14] 0.095

(cont.)

HYOU1, A0A494C039
inactive: erlotinib -0.036 | [1] -0.156 | [2] -0.023 | [3] -0.01 | [4] 0.135 | [5] 0.048 | [7] 0.164 | [8] 0.061 | [9] 0.083 | ibrutinib -0.086 | [10] 0.098 | [11] 0.126 | [12] 0.051 | [15] -0.031 | [14] -0.304

HMGN5 (UniProt Q5JSK9)
inactive: erlotinib 0.202 | [1] -0.257 | [2] -0.071 | [3] 0.058 | [4] 0.299 | [5] 0.067 | [6] -0.365 | [7] -0.15 | [8] 0.02 | [9] 0.038 | ibrutinib 0.012 | [10] -0.133 | ralimetinib -0.466 | [11] 0.073 | [12] 0.015 | [13] 0.258 | [14] 0.078

HIKESHI (UniProt Q53FT3)
inactive: erlotinib 0.004 | [1] 0.1 | [2] 0.017 | [3] 0.003 | [4] 0.073 | [5] 0.02 | [6] -0.002 | [7] -0.03 | [8] -0.056 | [9] 0.009 | IRAK-1-4 Inhibitor I 0.013 | ibrutinib -0.041 | [10] 0.023 | [11] -0.045 | [12] -0.007 | [13] -0.194 | pinometostat 0.062 | [14] 0.061
active: ralimetinib -0.305

HMGCLL1 (UniProt Q8TB92)
inactive: erlotinib 0.029 | [1] -0.124 | [2] 0.135 | [3] 0.003 | [4] 0.016 | [5] 0.045 | [7] 0.034 | [8] 0.015 | [9] 0.089 | IRAK-1-4 Inhibitor I 0.118 | ibrutinib 0.094 | [10] 0.022 | [11] -0.041 | [12] -0.026 | pinometostat 0.074 | [15] -0.015 | [14] 0.087

HIP1R (UniProt O75146)
inactive: erlotinib 0.017 | [1] 0.034 | [2] 0.024 | [3] 0.005 | [4] 0.054 | [5] 0.013 | [6] 0.018 | [7] 0.033 | [8] -0.004 | [9] -0.005 | IRAK-1-4 Inhibitor I 0.029 | ibrutinib -0.027 | [10] -0.022 | ralimetinib 0.01 | [11] -0.034 | [12] -0.059 | [13] -0.003 | pinometostat 0 | [14] 0.138

ICE2 (UniProt Q659A1)
inactive: erlotinib 0.154 | [1] 0.069 | [2] -0.146 | [3] 0.044 | [4] 0.079 | [5] 0.017 | [7] 0.007 | ibrutinib 0.029 | [10] -0.092 | [11] -0.028 | [12] -0.169

HIST2H2BF isoform 2 (UniProt Q5QNW6)
inactive: erlotinib 0.013 | [1] -0.161 | [2] -0.433 | [3] 0.046 | [4] 0.048 | [5] 0.223 | [6] -0.057 | [7] -0.083 | [8] 0.191 | [9] -0.373 | IRAK-1-4 Inhibitor I -0.165 | ibrutinib 0.148 | [10] -0.054 | ralimetinib 0.162 | [11] 0 | [12] -0.047 | [13] 0.226 | pinometostat 0.422 | [14] 0.601

HSD17B12 (UniProt Q53GQ0)
inactive: erlotinib 0.004 | [1] 0.067 | [2] 0.02 | [4] 0.025 | [5] -0.012 | [6] 0.027 | [7] 0.064 | [8] -0.028 | [9] 0.124 | IRAK-1-4 Inhibitor I -0.01 | ibrutinib 0.038 | [10] -0.127 | ralimetinib -0.037 | [12] 0.22 | [13] -0.062 | pinometostat -0.064 | [14] 0.031
active: [3] 0.346 | [11] 0.289

HSF1 (UniProt Q00613)
inactive: erlotinib 0.073 | [1] 0.014 | [2] 0.053 | [3] -0.091 | [4] 0.162 | [5] 0.03 | [7] 0.057 | [8] -0.071 | [9] 0.045 | ibrutinib -0.115 | [10] -0.178 | [11] -0.185 | [12] -0.29 | [15] 0.05 | [14] -0.313

HNRNPUL1 (UniProt Q9BUJ2)
inactive: erlotinib 0.022 | [1] -0.009 | [2] 0.018 | [3] -0.012 | [4] 0.001 | [5] -0.01 | [6] 0.004 | [7] 0.014 | [8] 0.029 | [9] -0.048 | IRAK-1-4 Inhibitor I -0.055 | ibrutinib 0 | [10] -0.072 | ralimetinib 0.005 | [11] 0.027 | [12] 0.007 | [13] 0.035 | pinometostat 0.01 | [14] -0.096

HMOX2 (UniProt P30519)
inactive: erlotinib 0.065 | [1] 0.057 | [2] 0.039 | [3] -0.038 | [4] 0.024 | [5] -0.023 | [6] 0.03 | [7] 0.032 | [8] -0.04 | [9] 0.016 | IRAK-1-4 Inhibitor I -0.061 | ibrutinib -0.035 | [10] -0.092 | ralimetinib 0.081 | [11] 0.031 | [12] 0.08 | [13] 0.028 | pinometostat 0 | [14] 0.012

HNRNPUL2 (UniProt Q1KMD3)
inactive: erlotinib -0.054 | [1] -0.08 | [2] -0.138 | [3] -0.015 | [4] -0.057 | [5] 0.012 | [6] -0.056 | [7] -0.014 | [8] 0.011 | [9] -0.102 | IRAK-1-4 Inhibitor I -0.033 | ibrutinib -0.022 | [10] -0.014 | ralimetinib -0.033 | [11] 0.024 | [12] 0.117 | [13] 0.054 | pinometostat 0.107 | [14] 0.023

HSPA8 (UniProt E9PN89)
inactive: erlotinib 0.051 | [1] -0.193 | [2] -0.191 | [3] -0.061 | [4] 0.358 | [5] 0.06 | [7] -0.133 | [8] 0.267 | [9] -0.027 | IRAK-1-4 Inhibitor I -0.032 | ibrutinib -0.069 | [10] -0.145 | [11] 0.127 | [12] 0.085 | pinometostat -0.004 | [14] 0.043
